Not every detail of the peptide structures is certain; ends, links or a residue may be inferred.
Experiments:
mouse tail fibroblasts = test: siRNA uptake with siRNA/peptide complexes in murine primary fibroblasts; type: cell-based; settings: Table 6
Experimental: Approximately 10,000 9 L/lacZ cells were plated per well in flat-bottom 96-well plates so that they would be ˜50% confluent the next day at the time of transfection. FAM-labeled siRNA and peptides were diluted in Opti-MEM® media (Invitrogen) at 2-fold the final concentration. Equal volumes of siRNA and peptide were mixed and allowed to complex 5-10 minutes at room temperature and then 50 μL added to cells, previously washed with PBS. Cells were transfected for 3 hours at 37° C., 5% CO2. Cells were washed with PBS, treated with trypsin and then analyzed by flow cytometry. siRNA uptake was measured by intensity of FAM fluorescence and cellular viability assessed by addition of propidium iodide.
The materials and methods used for these experiments are generally the same as described above, except that for the murine experiments 9 L/LacZ cells were replaced with mouse tail fibroblasts.
The uptake measurements were performed using mouse tail fibroblast cells.

9 L/LacZ cells = test: Screening of siRNA/peptide complexes for FAM-siRNA uptake (flow cytometry, propidium iodide); type: cell-based; settings: Table 6

Structure (SMILES): N=C(N)NCCC[C@H](NC(=O)CN)C(=O)N[C@@H](CCCCN)C(=O)N[C@@H](CCCCN)C(=O)N[C@@H](CCCNC(=N)N)C(=O)N[C@@H](CCCNC(=N)N)C(=O)N[C@@H](CCC(N)=O)C(=O)N[C@@H](CCCNC(=N)N)C(=O)N[C@@H](CCCNC(=N)N)C(=O)N[C@@H](CCCNC(=N)N)C(=O)N1CCC[C@H]1C(=O)N1CCC[C@H]1C(=O)N[C@@H](CCC(N)=O)C(=O)N[C@@H](CS)C(N)=O [PN173]
- Percent Uptake, Primary MTF Cells (mouse tail fibroblasts): 95%
- Percent Uptake, LacZ Cells (9 L/LacZ cells): 85%
